{
  "source": "patent EP4566598A1",
  "about": "“COMPOSITIONS PROVIDING SGLT2I AND BHB ACTIVITY AND METHODS OF USE TO TREAT HUMAN DISEASE” (priority 2023, dated 2025)",
  "origin": "cited, not measured here",
  "system": "AAA",
  "conditions": "two animal models, elevated BHB; cited from earlier work",
  "note": "At least one structure is not confirmed: it was looked up by name or label, or the drawing left a doubt.",
  "data": [
    {"compound": "CC(O)CC(=O)O", "note": "(stereo not drawn) [BHB, beta-hydroxybutyrate]", "values": [
      {"measurement": "effect on AAA induction and established AAA", "value": "impedes AAA induction and remarkably, reverses established AAA"}
    ]}
  ]
}
